Results deposited as PubChem BioAssay AID1259308 (NCATS, 2017)
Here is an unselected part of about 59,000 deposited reagents. In the full data, about 1,510 (2.6%) were called active. 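Calls use total luciferase alone and ignore viability, so some active siRNAs may act by altering cell number.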 Not all columns of the deposit are shown.

- Assay: 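Genes whose loss raises luciferase production in HEK293 cells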 (primary screen)
- System: human HEK293 embryonic kidney cells stably expressing firefly luciferase (HEK-CMV-Luc2-Hygro)
- Reagent: single siRNA against human genes, 0.8 pmol siRNA per well
- Timing: 72 h
- Measurement: 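Luciferase light (ONE-Glo) measured on one replicate plate set and viability (CellTiter-Glo) on the other, scaled to a negative control siRNA, with robust z-scores and luciferase per cell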
- Reading the numbers: total luciferase, z-score: higher = more reporter protein produced
- Hit rule: 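An siRNA counts as active if its total luciferase robust z-score exceeds 3; genes with two or more such siRNAs out of three were retested with fresh siRNAs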
- Calls: active = raised luciferase; inactive = no rise

total luciferase, z-score, by gene knocked down and reagent
TIGAR: SID160745598 0.849 inactive; SID160745600 1.15 inactive; SID160745601 -0.115 inactive
TCF7L1: SID160751100 -2.14 inactive; SID160751101 0.527 inactive; SID160751102 0.35 inactive
CTCFL: SID160757839 -0.363 inactive; SID160757840 2.41 inactive; SID160757841 2.33 inactive
BMP2: SID160728185 0.22 inactive; SID160728195 4.01 active; SID160728206 0.256 inactive
HSD3B7: SID160750308 -1.71 inactive; SID160750309 2.78 inactive; SID160750310 0.842 inactive
ZNF117: SID160740667 0.721 inactive; SID160740668 0.962 inactive; SID160740669 -0.141 inactive
SPRED1: SID160759868 0.565 inactive; SID160759869 -0.563 inactive; SID160759870 1.47 inactive
PEX26: SID160733616 1.05 inactive; SID160744057 1.82 inactive; SID160744058 0.238 inactive
PNMA6E: SID160726131 0.792 inactive; SID160734069 0.855 inactive; SID160770399 -0.0954 inactive
OR7G2: SID160766586 1.02 inactive; SID160766587 -0.477 inactive; SID160766588 0.781 inactive
NADK2: SID160757269 -0.349 inactive; SID160757270 -0.0595 inactive; SID160757273 -1.41 inactive
CCNY: SID160761348 0.0562 inactive; SID160761349 0.451 inactive; SID160761351 3.36 active
MTMR14: SID160747756 -0.0385 inactive; SID160747757 0.0414 inactive; SID160747758 -0.626 inactive
ARL6IP1P2: SID160725933 -0.781 inactive; SID160725934 0.31 inactive; SID160725935 1.1 inactive
DIRAS2: SID160742139 0.458 inactive; SID160742140 0.473 inactive; SID160742141 -2.19 inactive
GOLGA6L7: SID160726640 0.491 inactive; SID160733818 0.781 inactive; SID160768906 1.58 inactive; SID160768907 0.667 inactive; SID160771696 2.41 inactive; SID160771697 1.51 inactive
SIDT1: SID160733558 -0.356 inactive; SID160742304 0.606 inactive; SID160742305 -0.241 inactive
FAABTP: SID160743381 1.21 inactive; SID160743382 2.96 inactive; SID160743383 -1.12 inactive

Part of the list above, set out differently:
NADK2 [SID160757273]
- total luciferase, z-score: -1.41
- activity call: inactive

CCNY [SID160761348]
- total luciferase, z-score: 0.0562
- activity call: inactive

CCNY [SID160761349]
- total luciferase, z-score: 0.451
- activity call: inactive

CCNY [SID160761351]
- total luciferase, z-score: 3.36
- activity call: active

MTMR14 [SID160747756]
- total luciferase, z-score: -0.0385
- activity call: inactive

MTMR14 [SID160747757]
- total luciferase, z-score: 0.0414
- activity call: inactive

MTMR14 [SID160747758]
- total luciferase, z-score: -0.626
- activity call: inactive
